{
  "sequences": {"note": "Chains of the proteins cited; added tags and fusions are not shown. Residues count along the entry.", "UniProt O08589, residues 21-92": "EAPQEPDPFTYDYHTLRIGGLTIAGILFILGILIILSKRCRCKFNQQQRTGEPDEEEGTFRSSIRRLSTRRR"},
  "source": "paper PMC7395175",
  "target": "T1, Na-pump binding site peptide (NBSP), biotinylated zDHHC5 peptide αα 233–257 (rat)",
  "T1 sequence (peptide, N terminal biotin)": "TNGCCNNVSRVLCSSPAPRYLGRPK",
  "test": "pull-down; biotinylated NBSP added to whole rat heart homogenate lysed with FC-12, captured with streptavidin sepharose beads, Western blot; only the target purified",
  "note": "No constants are given. Whether binding was seen depends on the method and setting. In cells and extracts the contact can be indirect.",
  "data": [
    {"substance": "phospholemman (PLM), endogenous, rat heart (from UniProt O08589 21-92)", "values": [
      {"measurement": "binding", "result": "no binding"}
    ]}
  ]
}
